We go through one sequence from article PMC3126838.

The target of this series is T1, Nop8p (His-Nop8p) (UniProt Q08287).
T1 sequence (looked up): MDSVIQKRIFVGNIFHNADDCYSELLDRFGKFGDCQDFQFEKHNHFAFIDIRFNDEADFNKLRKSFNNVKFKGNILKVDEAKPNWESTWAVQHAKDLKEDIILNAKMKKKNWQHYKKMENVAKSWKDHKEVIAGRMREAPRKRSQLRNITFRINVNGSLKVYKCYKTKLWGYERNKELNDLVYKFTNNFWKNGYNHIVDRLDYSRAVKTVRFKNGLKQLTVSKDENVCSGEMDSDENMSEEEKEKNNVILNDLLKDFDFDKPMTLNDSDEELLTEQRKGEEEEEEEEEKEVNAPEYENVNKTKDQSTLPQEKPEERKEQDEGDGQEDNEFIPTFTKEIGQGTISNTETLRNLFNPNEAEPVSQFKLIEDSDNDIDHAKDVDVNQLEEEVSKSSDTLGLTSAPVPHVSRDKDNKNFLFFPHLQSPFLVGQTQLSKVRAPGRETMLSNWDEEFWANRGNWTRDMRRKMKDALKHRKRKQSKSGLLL
As to the kind of experiment: EMSA. Conditions: 1 pmol RNA, binds, but with much lower affinity than poly-AU; EMSA: 1 pmol radiolabeled RNA, 37 C, 30 min, 8% native PAGE; recombinant protein; residues 1-484. (In general: A gel shift assay detects complexes by their altered migration in electrophoresis.)

The comparison behind a weaker result is the experiment's own reference, which may not be listed here. Protein sequences can lack the tags named with them.

For the sequence “AAAAAAAAAAAAAA [poly-rA 14-mer (poly-A14)]”, the binding result is “binds more weakly”.
